Experimental data: paper doi:10.1101/692004
These are yes or no findings as the source states them, for the method shown. Binding seen in cells or lysates may run through a third protein. Some results given as binding are weak or reduced against the parent protein; the word gives no strength. Where a sequence is shown, tags or fusion partners need not be part of it.

Amino acid sequences for entries named in this document (tags omitted).
UniProt Q6R327: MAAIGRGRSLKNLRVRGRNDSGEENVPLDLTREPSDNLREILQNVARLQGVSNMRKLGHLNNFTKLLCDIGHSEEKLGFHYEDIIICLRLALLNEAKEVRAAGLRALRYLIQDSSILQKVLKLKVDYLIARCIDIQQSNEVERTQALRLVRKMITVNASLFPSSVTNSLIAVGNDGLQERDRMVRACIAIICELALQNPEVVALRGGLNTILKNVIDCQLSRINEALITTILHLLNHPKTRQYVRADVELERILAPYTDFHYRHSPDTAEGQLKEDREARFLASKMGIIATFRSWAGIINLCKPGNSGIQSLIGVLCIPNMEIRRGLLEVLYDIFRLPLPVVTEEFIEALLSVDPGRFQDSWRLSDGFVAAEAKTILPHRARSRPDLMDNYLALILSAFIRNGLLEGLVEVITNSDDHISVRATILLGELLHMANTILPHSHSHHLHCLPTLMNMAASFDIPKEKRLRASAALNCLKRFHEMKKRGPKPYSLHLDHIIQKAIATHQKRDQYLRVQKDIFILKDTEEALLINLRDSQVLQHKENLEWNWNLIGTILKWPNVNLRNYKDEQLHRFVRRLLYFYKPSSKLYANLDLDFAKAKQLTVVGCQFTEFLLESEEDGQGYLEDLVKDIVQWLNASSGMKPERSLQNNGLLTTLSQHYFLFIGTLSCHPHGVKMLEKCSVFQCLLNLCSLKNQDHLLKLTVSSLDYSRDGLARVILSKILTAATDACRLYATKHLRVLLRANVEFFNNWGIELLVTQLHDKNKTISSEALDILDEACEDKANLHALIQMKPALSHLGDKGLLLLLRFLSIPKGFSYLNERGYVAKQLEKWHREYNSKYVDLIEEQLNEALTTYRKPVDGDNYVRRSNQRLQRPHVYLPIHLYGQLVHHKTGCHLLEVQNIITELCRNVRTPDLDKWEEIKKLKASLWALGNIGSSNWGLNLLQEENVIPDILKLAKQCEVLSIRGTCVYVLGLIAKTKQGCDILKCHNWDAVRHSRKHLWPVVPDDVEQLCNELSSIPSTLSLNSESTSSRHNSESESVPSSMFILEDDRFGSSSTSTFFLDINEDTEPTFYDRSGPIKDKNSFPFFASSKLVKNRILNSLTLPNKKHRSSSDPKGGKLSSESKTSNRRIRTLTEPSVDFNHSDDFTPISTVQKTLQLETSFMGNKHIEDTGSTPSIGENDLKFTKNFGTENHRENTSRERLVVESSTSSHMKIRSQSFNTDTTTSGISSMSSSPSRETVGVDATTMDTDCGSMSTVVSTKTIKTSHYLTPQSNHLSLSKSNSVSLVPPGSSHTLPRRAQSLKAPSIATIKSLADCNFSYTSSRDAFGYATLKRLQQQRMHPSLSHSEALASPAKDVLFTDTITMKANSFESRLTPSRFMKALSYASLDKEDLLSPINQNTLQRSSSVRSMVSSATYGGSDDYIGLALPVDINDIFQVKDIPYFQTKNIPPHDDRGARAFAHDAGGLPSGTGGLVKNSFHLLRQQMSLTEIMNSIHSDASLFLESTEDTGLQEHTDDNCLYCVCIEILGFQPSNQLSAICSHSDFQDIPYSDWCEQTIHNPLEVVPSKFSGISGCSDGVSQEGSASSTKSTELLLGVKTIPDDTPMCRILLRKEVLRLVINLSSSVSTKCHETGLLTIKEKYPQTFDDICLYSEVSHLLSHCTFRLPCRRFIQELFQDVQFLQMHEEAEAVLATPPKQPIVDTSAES
UniProt Q9Y6W5: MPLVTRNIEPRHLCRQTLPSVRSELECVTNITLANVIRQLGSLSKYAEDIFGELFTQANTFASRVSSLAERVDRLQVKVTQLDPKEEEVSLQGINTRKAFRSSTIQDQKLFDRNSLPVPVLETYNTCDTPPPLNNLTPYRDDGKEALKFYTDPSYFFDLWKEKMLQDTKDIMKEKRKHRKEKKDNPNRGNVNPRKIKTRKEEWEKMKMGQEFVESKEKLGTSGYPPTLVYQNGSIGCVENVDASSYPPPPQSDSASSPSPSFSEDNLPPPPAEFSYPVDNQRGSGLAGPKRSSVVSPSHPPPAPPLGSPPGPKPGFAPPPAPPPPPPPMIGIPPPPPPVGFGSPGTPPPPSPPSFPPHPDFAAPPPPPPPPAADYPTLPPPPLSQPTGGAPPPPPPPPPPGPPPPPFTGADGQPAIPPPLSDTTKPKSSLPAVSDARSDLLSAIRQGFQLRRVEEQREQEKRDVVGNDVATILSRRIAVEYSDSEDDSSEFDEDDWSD

Assays:
Test in all cases: co-IP
[1] = biological target: T1, Hem1-3xFLAG-V5 P359L (human) (UniProt P55160)
T1 sequence: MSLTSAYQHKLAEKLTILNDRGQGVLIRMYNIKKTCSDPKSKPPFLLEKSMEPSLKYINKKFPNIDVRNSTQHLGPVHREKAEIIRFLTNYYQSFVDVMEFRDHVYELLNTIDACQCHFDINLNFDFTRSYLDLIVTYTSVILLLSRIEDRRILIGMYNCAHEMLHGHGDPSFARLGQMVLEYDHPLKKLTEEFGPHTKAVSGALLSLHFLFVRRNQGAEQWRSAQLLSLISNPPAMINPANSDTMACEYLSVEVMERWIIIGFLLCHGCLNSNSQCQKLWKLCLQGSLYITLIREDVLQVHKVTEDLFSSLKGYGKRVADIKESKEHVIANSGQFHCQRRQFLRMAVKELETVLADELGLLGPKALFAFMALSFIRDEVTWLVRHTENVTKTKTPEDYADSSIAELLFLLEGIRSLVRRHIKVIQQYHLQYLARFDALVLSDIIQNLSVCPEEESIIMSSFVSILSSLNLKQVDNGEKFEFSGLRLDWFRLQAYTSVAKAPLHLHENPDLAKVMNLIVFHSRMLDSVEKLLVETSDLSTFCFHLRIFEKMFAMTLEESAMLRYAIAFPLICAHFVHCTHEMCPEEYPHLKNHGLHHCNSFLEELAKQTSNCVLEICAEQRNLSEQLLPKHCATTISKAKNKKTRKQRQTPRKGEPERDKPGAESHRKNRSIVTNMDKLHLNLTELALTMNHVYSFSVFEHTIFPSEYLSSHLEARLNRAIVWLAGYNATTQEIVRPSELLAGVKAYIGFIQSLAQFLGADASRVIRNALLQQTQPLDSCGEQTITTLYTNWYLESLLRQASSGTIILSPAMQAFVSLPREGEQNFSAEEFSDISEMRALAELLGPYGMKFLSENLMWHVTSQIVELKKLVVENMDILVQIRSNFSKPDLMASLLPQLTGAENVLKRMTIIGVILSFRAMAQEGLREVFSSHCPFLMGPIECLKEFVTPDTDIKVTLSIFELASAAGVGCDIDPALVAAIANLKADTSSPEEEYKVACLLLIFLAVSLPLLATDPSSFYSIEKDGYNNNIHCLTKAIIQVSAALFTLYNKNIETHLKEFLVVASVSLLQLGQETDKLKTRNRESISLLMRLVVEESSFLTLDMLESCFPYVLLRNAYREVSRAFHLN

[2] = biological target: T2, Hem1-3xFLAG-V5 V519L (human) (UniProt P55160)
T2 sequence: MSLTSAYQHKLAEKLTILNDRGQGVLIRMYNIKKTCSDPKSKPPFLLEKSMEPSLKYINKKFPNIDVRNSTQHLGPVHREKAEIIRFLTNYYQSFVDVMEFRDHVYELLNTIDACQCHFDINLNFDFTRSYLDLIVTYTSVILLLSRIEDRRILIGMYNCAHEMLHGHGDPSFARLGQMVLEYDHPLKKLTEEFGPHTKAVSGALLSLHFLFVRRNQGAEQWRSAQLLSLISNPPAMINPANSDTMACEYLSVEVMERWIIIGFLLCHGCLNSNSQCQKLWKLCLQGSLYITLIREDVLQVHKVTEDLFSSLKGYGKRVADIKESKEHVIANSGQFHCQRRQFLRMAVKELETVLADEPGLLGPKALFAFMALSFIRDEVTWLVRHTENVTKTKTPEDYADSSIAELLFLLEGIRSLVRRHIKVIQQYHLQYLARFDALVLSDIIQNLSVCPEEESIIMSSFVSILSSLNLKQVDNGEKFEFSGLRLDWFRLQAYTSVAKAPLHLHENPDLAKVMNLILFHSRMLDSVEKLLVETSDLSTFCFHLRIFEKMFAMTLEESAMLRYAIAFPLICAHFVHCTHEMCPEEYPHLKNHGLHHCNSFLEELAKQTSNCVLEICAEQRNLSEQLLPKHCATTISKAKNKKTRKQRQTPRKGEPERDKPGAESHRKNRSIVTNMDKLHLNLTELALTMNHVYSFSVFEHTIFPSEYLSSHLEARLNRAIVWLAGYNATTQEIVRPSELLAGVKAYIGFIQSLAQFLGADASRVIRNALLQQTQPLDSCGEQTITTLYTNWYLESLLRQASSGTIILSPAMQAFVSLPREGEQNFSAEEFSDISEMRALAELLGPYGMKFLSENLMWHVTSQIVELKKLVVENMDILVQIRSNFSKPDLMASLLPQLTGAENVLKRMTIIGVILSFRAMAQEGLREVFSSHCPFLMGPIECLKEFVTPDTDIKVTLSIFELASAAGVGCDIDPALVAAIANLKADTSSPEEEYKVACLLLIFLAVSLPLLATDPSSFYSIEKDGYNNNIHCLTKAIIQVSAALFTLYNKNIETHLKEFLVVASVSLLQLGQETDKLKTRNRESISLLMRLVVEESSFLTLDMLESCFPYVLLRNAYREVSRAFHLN

[3] = biological target: T3, Hem1-3xFLAG-V5 M371V (human) (UniProt P55160)
T3 sequence: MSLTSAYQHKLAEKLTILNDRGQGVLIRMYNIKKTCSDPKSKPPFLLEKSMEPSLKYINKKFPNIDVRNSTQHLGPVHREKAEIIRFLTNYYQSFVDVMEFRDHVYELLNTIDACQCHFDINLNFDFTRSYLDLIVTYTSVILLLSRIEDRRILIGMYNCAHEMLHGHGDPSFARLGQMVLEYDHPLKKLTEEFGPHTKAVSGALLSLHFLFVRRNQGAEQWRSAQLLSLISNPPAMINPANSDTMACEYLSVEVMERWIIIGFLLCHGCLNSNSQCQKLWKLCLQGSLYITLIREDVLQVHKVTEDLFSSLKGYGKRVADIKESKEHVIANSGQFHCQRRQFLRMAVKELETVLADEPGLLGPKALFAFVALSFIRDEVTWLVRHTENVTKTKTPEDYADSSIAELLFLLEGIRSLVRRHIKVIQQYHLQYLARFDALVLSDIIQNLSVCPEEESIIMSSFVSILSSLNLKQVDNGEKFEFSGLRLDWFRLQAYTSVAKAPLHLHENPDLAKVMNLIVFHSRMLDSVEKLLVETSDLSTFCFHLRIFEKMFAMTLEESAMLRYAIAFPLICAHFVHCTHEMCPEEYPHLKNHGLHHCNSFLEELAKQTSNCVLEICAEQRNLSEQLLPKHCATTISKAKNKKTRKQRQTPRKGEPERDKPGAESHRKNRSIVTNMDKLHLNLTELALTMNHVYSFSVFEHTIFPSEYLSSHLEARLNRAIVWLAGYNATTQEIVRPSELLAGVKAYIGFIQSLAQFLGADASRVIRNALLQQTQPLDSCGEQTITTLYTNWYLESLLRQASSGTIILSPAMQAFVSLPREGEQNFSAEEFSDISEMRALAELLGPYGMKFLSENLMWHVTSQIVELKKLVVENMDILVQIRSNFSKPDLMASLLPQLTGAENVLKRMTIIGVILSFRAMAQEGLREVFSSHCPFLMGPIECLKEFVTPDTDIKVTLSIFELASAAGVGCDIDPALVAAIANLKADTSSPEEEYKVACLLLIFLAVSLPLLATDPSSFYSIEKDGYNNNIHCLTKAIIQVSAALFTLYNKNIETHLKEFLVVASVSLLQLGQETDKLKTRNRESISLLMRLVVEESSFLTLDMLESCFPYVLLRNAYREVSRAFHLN

[4] = biological target: T4, Hem1-3xFLAG-V5, wild type (Flag-tagged Hem1) (human) (UniProt P55160)
T4 sequence: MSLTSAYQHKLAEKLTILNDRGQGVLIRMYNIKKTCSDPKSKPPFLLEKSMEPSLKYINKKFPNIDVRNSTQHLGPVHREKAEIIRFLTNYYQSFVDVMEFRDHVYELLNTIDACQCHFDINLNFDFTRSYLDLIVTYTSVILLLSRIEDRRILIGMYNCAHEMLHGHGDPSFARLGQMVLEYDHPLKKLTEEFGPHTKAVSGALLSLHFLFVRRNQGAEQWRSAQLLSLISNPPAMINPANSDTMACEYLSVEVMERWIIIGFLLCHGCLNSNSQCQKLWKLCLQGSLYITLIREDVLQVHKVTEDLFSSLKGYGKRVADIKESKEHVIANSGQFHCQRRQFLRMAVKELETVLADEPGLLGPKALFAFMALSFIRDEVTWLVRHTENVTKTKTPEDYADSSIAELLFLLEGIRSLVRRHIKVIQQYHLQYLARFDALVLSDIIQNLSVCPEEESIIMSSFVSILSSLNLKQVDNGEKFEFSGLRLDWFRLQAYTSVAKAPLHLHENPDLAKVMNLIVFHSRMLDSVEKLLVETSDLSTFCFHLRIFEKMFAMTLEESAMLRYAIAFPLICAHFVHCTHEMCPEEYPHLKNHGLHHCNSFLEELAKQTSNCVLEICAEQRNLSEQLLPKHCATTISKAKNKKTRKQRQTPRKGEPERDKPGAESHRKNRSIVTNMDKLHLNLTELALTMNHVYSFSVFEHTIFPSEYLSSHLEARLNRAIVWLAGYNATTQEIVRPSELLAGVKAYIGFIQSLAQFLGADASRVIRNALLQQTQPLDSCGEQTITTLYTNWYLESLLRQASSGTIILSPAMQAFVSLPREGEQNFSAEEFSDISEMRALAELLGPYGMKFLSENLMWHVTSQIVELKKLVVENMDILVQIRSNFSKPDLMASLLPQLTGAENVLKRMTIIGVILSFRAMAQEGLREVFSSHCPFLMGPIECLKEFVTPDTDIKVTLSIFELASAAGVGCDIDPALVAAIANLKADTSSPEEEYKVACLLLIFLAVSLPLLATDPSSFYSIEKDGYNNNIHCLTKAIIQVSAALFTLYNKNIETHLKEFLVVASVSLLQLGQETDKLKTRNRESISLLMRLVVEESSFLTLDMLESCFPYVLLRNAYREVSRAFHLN

myc-Rictor = myc-Rictor (UniProt Q6R327)

## WAVE2, endogenous in 293T cells (from UniProt Q9Y6W5 1-498)
[1]
  binding: binds
[2]
  binding: binds
[3]
  binding: binds
[4]
  binding: binds

B1: Hem1-3xFLAG-V5, wild type (Flag-tagged Hem1) (protein, UniProt P55160-1 1-1127)
chain: MSLTSAYQHKLAEKLTILNDRGQGVLIRMYNIKKTCSDPKSKPPFLLEKSMEPSLKYINKKFPNIDVRNSTQHLGPVHREKAEIIRFLTNYYQSFVDVMEFRDHVYELLNTIDACQCHFDINLNFDFTRSYLDLIVTYTSVILLLSRIEDRRILIGMYNCAHEMLHGHGDPSFARLGQMVLEYDHPLKKLTEEFGPHTKAVSGALLSLHFLFVRRNQGAEQWRSAQLLSLISNPPAMINPANSDTMACEYLSVEVMERWIIIGFLLCHGCLNSNSQCQKLWKLCLQGSLYITLIREDVLQVHKVTEDLFSSLKGYGKRVADIKESKEHVIANSGQFHCQRRQFLRMAVKELETVLADEPGLLGPKALFAFMALSFIRDEVTWLVRHTENVTKTKTPEDYADSSIAELLFLLEGIRSLVRRHIKVIQQYHLQYLARFDALVLSDIIQNLSVCPEEESIIMSSFVSILSSLNLKQVDNGEKFEFSGLRLDWFRLQAYTSVAKAPLHLHENPDLAKVMNLIVFHSRMLDSVEKLLVETSDLSTFCFHLRIFEKMFAMTLEESAMLRYAIAFPLICAHFVHCTHEMCPEEYPHLKNHGLHHCNSFLEELAKQTSNCVLEICAEQRNLSEQLLPKHCATTISKAKNKKTRKQRQTPRKGEPERDKPGAESHRKNRSIVTNMDKLHLNLTELALTMNHVYSFSVFEHTIFPSEYLSSHLEARLNRAIVWLAGYNATTQEIVRPSELLAGVKAYIGFIQSLAQFLGADASRVIRNALLQQTQPLDSCGEQTITTLYTNWYLESLLRQASSGTIILSPAMQAFVSLPREGEQNFSAEEFSDISEMRALAELLGPYGMKFLSENLMWHVTSQIVELKKLVVENMDILVQIRSNFSKPDLMASLLPQLTGAENVLKRMTIIGVILSFRAMAQEGLREVFSSHCPFLMGPIECLKEFVTPDTDIKVTLSIFELASAAGVGCDIDPALVAAIANLKADTSSPEEEYKVACLLLIFLAVSLPLLATDPSSFYSIEKDGYNNNIHCLTKAIIQVSAALFTLYNKNIETHLKEFLVVASVSLLQLGQETDKLKTRNRESISLLMRLVVEESSFLTLDMLESCFPYVLLRNAYREVSRAFHLN
myc-Rictor
  binding: binds weakly
